Changes are numbered by the printed parent chain. Results are given in words; binding and its absence hold for the method and conditions named. Binding seen in cells or lysates may run through a third protein. Some results given as binding are weak or reduced against the parent protein; the word gives no strength.
How the values were obtained:
[1] = target: Discs large 1 (Dlg1), rat (rat (endogenous in optic and sciatic nerve)) (UniProt Q62696); experiment: pull-down; same pull-down as a1 (GST-Kif13b/MBS bait, P11 rat optic nerve lysate), read by the paper for endogenous Dlg1 against another protein of the lysate
[2] = target: Discs large 1 (Dlg1), rat (rat (endogenous in optic and sciatic nerve)) (UniProt Q62696); experiment: pull-down; same pull-down as a2 (GST-Kif13b/MBS bait, P11 rat sciatic nerve lysate), read by the paper for endogenous Dlg1 against another protein of the lysate
[3] = target: Discs large 1 (Dlg1), mouse (mouse (endogenous in sciatic nerve)) (UniProt Q811D0); experiment: co-IP; anti-Dlg1 immunoprecipitation from P20 mouse sciatic nerve lysate (1% NP-40, 150 mM NaCl, 50 mM Tris pH 8.0), protein G agarose, mouse IgG as control; immunoblot
[4] = target: Discs large 1 (Dlg1), rat (rat (endogenous in optic and sciatic nerve)) (UniProt Q62696); experiment: co-IP; Dlg1 and p38γ co-immunoprecipitated from P11 rat optic nerve lysate; immunoblot

The chains behind the UniProt entries cited, without tags or fusion partners.
UniProt Q62696: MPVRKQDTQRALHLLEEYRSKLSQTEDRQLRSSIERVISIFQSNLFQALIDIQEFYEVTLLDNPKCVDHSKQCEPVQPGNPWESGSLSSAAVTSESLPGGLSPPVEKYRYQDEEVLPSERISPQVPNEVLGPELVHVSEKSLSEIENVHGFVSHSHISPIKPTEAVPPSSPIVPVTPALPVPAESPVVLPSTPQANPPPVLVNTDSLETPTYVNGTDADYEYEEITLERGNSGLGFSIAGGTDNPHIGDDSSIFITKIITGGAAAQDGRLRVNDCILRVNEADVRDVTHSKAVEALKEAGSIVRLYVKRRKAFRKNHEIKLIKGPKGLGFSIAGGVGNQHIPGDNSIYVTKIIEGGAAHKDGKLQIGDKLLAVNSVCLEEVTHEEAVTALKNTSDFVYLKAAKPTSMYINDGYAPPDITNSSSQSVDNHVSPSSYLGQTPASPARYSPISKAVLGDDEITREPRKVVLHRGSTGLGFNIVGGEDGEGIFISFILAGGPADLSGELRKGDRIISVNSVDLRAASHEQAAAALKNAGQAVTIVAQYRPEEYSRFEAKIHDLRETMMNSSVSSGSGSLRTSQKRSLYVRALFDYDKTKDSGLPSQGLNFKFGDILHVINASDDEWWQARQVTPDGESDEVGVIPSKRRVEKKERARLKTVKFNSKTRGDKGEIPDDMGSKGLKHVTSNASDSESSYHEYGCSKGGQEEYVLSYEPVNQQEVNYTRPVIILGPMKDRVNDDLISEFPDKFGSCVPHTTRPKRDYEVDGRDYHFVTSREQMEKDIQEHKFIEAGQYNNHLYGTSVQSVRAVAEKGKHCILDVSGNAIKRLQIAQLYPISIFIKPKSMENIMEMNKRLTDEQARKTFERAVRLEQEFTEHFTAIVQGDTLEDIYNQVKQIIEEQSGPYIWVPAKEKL
UniProt Q811D0: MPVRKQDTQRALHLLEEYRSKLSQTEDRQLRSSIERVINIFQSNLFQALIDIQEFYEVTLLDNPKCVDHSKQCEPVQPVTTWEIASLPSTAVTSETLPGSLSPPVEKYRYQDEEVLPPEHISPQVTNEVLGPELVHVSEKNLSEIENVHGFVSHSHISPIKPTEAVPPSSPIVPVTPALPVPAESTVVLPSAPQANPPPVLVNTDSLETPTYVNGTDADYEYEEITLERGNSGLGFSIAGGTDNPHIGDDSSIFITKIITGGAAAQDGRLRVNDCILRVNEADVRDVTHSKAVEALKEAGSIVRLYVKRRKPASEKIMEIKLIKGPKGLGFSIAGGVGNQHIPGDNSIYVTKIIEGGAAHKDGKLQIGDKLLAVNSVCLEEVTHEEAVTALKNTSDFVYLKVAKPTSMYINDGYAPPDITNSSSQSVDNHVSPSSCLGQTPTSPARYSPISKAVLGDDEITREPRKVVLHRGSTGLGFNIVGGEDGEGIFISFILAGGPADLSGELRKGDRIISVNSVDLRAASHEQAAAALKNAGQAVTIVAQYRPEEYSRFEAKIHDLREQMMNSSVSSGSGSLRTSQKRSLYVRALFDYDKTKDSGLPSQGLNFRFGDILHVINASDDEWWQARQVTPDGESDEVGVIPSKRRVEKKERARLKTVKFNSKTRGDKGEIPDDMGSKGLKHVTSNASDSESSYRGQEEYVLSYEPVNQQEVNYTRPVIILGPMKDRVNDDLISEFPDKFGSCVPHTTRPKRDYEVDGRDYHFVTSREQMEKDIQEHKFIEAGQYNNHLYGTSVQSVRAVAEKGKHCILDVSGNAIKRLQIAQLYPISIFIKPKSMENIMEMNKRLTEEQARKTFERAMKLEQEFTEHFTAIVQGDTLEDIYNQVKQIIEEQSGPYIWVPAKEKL
UniProt P70618: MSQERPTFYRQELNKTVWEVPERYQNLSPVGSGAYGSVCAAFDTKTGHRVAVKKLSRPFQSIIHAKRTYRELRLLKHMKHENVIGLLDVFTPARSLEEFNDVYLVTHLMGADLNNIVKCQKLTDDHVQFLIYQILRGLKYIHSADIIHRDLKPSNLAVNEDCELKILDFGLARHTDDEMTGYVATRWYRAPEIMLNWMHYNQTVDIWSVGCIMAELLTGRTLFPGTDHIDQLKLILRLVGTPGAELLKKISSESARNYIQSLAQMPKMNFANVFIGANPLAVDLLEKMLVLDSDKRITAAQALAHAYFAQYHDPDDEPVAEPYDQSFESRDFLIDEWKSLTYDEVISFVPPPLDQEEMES

p38α MAPK, rat (from UniProt P70618 1-360)
binding [1]: no binding | binding [2]: no binding

B1: p38γ mitogen-activated protein kinase (MAPK), mouse (protein, UniProt O08911 1-367)
chain: MSSPPPARKGFYRQEVTKTAWEVRAVYQDLQPVGSGAYGAVCSAVDSRTGNKVAIKKLYRPFQSELFAKRAYRELRLLKHMRHENVIGLLDVFTPDESLDDFTDFYLVMPFMGTDLGKLMKHETLSEDRIQFLVYQMLKGLKYIHAAGVIHRDLKPGNLAVNEDCELKILDFGLARQADSEMTGYVVTRWYRAPEVILNWMRYTQTVDIWSVGCIMAEMITGKILFKGNDHLDQLKEIMKITGTPPPEFVQKLQSAEAKNYMEGLPELEKKDFASVLTNASPQAVNLLERMLVLDAEQRVTAAEALTHPYFESLRDTEDEPKAQKYDDSFDDVDRTLEEWKRVTYKEVLSFKPPRQLGARVPKETAL
binding [3]: binds

B2: p38γ mitogen-activated protein kinase (MAPK), rat (protein, UniProt Q63538 1-367)
chain: B1 chain with S98T, I241V, R290K, T307A
binding [4]: binds

Source: paper PMC4829179
